# Test results as given in the supplement of paper PMC10849652.
# Sequences of proteins named here, by UniProt entry; tags and fusion partners are left off. A change or cut given only in a name is not applied to a line headed by its entry.
# UniProt O95219: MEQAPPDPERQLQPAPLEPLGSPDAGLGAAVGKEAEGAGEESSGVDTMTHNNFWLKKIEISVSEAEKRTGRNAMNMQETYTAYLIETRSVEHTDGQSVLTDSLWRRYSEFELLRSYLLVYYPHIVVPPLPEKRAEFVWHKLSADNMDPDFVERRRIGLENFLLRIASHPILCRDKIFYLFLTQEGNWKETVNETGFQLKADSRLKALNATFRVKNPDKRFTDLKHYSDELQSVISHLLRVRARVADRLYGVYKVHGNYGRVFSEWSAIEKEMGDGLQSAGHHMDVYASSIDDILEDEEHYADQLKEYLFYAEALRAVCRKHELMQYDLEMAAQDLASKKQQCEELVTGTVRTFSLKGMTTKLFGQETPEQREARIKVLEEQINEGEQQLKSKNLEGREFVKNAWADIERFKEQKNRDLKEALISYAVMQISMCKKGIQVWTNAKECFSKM
# UniProt Q5SQN1: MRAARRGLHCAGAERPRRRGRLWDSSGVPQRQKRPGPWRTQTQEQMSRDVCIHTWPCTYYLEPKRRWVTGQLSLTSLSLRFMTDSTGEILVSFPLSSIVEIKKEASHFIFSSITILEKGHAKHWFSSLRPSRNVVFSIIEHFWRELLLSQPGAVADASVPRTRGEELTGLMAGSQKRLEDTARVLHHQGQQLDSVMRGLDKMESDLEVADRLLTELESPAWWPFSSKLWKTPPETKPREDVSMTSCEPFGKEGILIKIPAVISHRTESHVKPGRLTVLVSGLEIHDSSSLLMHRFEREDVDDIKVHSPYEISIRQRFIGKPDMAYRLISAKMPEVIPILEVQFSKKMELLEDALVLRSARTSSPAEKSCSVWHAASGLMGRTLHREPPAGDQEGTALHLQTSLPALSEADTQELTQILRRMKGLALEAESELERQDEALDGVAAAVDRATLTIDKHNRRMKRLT
# UniProt Q9NRH2: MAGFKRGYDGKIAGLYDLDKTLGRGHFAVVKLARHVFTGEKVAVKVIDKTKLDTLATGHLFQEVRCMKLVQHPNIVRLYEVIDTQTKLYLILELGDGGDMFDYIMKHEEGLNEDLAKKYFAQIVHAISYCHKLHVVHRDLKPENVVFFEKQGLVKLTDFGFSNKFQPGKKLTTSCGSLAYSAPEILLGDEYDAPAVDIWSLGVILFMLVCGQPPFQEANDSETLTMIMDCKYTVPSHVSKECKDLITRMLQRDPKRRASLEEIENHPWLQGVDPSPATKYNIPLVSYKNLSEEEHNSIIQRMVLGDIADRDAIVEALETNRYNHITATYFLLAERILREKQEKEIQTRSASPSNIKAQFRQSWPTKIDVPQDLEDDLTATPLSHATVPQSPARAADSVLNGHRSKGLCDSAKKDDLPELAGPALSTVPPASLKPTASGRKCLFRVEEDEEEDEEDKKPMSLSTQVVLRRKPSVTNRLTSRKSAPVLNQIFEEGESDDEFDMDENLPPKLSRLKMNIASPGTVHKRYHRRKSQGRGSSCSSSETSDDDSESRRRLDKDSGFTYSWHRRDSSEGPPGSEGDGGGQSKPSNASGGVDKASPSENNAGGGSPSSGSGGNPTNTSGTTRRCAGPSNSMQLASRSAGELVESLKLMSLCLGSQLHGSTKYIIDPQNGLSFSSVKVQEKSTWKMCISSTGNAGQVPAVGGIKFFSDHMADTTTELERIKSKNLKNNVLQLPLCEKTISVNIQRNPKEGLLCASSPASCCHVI
# UniProt P02814: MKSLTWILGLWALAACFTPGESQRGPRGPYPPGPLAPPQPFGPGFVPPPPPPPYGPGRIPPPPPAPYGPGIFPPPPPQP
# UniProt Q92581: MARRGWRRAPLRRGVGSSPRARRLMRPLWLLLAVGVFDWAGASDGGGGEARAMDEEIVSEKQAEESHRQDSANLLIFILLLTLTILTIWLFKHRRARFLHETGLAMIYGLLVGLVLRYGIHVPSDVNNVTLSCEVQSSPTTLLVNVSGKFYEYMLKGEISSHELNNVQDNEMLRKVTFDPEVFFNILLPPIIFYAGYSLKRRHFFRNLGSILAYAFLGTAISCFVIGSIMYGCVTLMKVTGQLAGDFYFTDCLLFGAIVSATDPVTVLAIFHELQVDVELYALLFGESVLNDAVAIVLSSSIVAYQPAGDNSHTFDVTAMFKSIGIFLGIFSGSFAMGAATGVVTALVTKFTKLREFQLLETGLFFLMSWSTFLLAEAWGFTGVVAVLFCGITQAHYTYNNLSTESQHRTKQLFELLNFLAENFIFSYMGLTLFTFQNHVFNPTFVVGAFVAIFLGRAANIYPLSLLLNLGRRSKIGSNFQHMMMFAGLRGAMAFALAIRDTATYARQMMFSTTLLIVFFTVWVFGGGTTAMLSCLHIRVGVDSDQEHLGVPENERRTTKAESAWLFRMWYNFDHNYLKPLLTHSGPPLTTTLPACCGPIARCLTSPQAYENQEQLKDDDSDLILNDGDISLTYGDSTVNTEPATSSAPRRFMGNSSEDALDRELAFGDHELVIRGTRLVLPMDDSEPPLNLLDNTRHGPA
# UniProt Q96GM5, whole entry, looked up: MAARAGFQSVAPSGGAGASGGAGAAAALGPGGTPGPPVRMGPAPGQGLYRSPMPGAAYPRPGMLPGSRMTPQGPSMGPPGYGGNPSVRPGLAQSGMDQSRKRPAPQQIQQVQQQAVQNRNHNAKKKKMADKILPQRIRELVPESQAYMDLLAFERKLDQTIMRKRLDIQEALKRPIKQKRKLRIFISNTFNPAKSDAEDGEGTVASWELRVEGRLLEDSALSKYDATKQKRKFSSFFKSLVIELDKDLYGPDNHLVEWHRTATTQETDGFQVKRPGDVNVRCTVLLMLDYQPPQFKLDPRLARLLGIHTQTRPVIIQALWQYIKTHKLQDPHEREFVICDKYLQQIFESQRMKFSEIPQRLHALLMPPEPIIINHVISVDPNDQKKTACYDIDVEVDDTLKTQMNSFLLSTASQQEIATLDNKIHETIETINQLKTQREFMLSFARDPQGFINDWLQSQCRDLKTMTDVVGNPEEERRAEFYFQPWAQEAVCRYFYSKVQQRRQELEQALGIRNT
# UniProt Q0VAQ4: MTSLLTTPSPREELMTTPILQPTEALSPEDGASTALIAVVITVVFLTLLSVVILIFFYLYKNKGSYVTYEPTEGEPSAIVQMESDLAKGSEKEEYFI
# UniProt P08294: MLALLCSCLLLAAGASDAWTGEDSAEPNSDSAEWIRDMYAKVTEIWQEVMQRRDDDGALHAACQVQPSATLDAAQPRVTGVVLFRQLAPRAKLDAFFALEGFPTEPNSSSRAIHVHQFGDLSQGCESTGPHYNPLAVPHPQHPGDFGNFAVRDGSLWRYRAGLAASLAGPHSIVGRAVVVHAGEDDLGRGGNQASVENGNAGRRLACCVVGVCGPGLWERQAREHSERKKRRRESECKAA
# UniProt Q86UD5: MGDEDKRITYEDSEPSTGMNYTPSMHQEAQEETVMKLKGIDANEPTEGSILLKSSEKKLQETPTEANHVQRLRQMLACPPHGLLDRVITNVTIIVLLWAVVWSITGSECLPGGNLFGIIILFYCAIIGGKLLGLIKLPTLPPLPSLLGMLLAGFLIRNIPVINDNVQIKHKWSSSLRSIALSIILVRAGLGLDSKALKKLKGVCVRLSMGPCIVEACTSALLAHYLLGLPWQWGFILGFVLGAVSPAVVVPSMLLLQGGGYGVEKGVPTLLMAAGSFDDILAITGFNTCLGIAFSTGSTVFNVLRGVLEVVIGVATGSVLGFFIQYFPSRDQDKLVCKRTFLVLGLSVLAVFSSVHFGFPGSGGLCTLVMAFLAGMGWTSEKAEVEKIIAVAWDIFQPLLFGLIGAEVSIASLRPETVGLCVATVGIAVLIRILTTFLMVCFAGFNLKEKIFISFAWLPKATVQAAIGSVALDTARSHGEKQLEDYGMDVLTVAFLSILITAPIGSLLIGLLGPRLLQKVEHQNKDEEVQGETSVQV
# UniProt Q86T20: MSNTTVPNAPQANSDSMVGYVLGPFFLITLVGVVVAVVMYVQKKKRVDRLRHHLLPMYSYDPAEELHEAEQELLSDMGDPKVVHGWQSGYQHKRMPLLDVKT
# The other results are listed elsewhere or left out. Residues, ends and D or L forms follow the SMILES beside them. *: point of attachment. Cbz = O=C(OCc1ccccc1)*
# What was measured:
# Assay in all cases: log2 fold change, soluble protein after heating vs DMSO (PISA); higher = thermal stabilisation; K562 cells, 10 uM, 30 min; active = over 0.2 and 3.5 SD of the protein, either way, in both replicates (recomputed)
# ralimetinib = compound: CC(C)(C)Cn1c(N)nc2ccc(-c3[nH]c(C(C)(C)C)nc3-c3ccc(F)cc3)nc21 [ralimetinib]
# How it was run: (§1)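 Values are thermal stability changes relative to control samples and are taken from duplicates. They are stated as log2 fold changes. Before quantification by TMTpro 16plex LC-MS/MS with equalised channel sums, K562 cells at 2×10^6 cells/mL were treated with 10 μM compound for 30 min, heated in aliquots for 3 min across 48°C-58°C, pooled, extracted in PBS with 0.5% NP-40 at 4°C, and centrifuged at 21,000xg for 90 min to give the soluble supernatant.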
# [1] = compound: CC(C)C[C@@H](C=O)NC(=O)[C@H](CC(C)C)NC(=O)[C@H](CC(C)C)NC(=O)OCc1ccccc1
# How it was run: as §1
# [2] = compound: CC(C)(O)CC(=O)NCCn1ccc2ncnc(Nc3ccc(Oc4cccc(C(F)(F)F)c4)c(Cl)c3)c21
# How it was run: as §1
# [3] = compound: CC(C)C1=C2N=C(C=C(N2N=C1)NCC3=CC=CC=C3)NCCCCCCN
# How it was run: as §1
# IRAK-1-4 Inhibitor I = compound: C1COCCN1CCN2C3=CC=CC=C3N=C2NC(=O)C4=CC(=CC=C4)[N+](=O)[O-] [IRAK-1-4 Inhibitor I]
# How it was run: as §1
# pinometostat = compound: CC(C)N(C[C@H]1O[C@@H](n2cnc3c(N)ncnc32)[C@H](O)[C@@H]1O)[C@H]1C[C@@H](CCc2nc3cc(C(C)(C)C)ccc3[nH]2)C1 [pinometostat]
# How it was run: as §1
# ibrutinib = compound: C=CC(=O)N1CCC[C@@H](n2nc(-c3ccc(Oc4ccccc4)cc3)c3c(N)ncnc32)C1 [ibrutinib]
# How it was run: as §1
# [4] = compound: CC1=C(C(CC(=O)N1)C2=CC=C(C=C2)C(F)(F)F)C(=O)NC3=C(C=C4C(=C3)C=NN4)F
# How it was run: as §1
# [5] = compound: CC(=O)c1cnc2ccc(-c3cc(Cl)c(O)c(Cl)c3)nc2c1N[C@H]1CC[C@H](CN(C)C)CC1
# How it was run: as §1
# [6] = compound: CC1=C(C2=C(C=C1)C(=O)C3=CC=CC=C3N2CCCN)C
# How it was run: as §1
target,measurement,setting,value
SNX4 (UniProt O95219),log2 fold change,ralimetinib,inactive: 0.13
same,log2 fold change,[1],inactive: 0.116
SNAP47 (UniProt Q5SQN1),log2 fold change,[2],inactive: 0.037
same,log2 fold change,[3],inactive: -0.186
SNRK (UniProt Q9NRH2),log2 fold change,IRAK-1-4 Inhibitor I,inactive: -0.126
same,log2 fold change,pinometostat,inactive: -0.087
SMR3B (UniProt P02814),log2 fold change,ibrutinib,inactive: -0.153
same,log2 fold change,[4],inactive: -0.299
SLC9A6 isoform 3 (UniProt Q92581),log2 fold change,ibrutinib,inactive: -0.012
same,log2 fold change,[5],inactive: 0.004
same,log2 fold change,[3],inactive: 0.051
same,log2 fold change,[6],inactive: 0.075
SMARCD1 (UniProt Q96GM5),log2 fold change,[3],inactive: -0.057
SMAGP (UniProt Q0VAQ4),log2 fold change,ibrutinib,inactive: 0.005
same,log2 fold change,[5],inactive: -0.366
same,log2 fold change,[2],inactive: -0.235
same,log2 fold change,[4],inactive: 0.074
same,log2 fold change,[6],inactive: 0.43
SOD3 (UniProt P08294),log2 fold change,[5],inactive: 0.087
same,log2 fold change,[6],inactive: 0.175
SLC9B2 (UniProt Q86UD5),log2 fold change,[2],inactive: 0.089
SMIM29 (UniProt Q86T20),log2 fold change,[3],inactive: -0.024

# Pulled one by one from above (two):
target,measurement,setting,value
SNAP47 (UniProt Q5SQN1),log2 fold change,[3],inactive: -0.186
SMAGP (UniProt Q0VAQ4),log2 fold change,[2],inactive: -0.235
